In article doi:10.1101/2025.04.14.648677 (bioRxiv, 2025) one finds binding data, which are given here for 3 molecules.

These are yes or no findings as the source states them, for the method shown. Some entries that bind do so weakly or less than the wild type.

Experiment [1] concerns the target AGR2 (42-171) Q56W (not stated (human or mouse AGR2 made)) (UniProt O95994). As to the kind of experiment: NMR spectroscopy.
For experiment [2], the target named is T1, AGR2 co-expressed with IRE1β_LD (cryo-EM complex, UK3289) (not stated (human or mouse AGR2 made)), O95994.
T1 chain: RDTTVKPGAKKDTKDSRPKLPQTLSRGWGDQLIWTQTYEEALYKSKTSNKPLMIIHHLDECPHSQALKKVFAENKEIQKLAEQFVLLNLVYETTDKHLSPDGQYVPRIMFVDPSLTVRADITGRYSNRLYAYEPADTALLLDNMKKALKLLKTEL
As to the kind of experiment: cryo-EM structure. The following applies: remark: other sources report otherwise.

Experiment [3] concerns the target T2, human AGR2 (residues 21-175), AUC (human), O95994.
T2 chain: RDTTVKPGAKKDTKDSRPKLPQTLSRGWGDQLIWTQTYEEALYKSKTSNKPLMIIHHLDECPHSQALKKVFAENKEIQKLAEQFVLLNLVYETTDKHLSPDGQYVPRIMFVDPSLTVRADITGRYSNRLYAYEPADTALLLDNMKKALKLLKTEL
As to the kind of experiment: AUC. Conditions: remark: other sources report otherwise.

As for “AGR2 (42-171) Q56W (from UniProt O95994 41-171) (domain or fragment)”, in experiment [1], the binding entry is “no binding”.

B1: AGR2 co-expressed with IRE1β_LD (cryo-EM complex, UK3289), O95994 21-175 (protein)
chain: RDTTVKPGAKKDTKDSRPKLPQTLSRGWGDQLIWTQTYEEALYKSKTSNKPLMIIHHLDECPHSQALKKVFAENKEIQKLAEQFVLLNLVYETTDKHLSPDGQYVPRIMFVDPSLTVRADITGRYSNRLYAYEPADTALLLDNMKKALKLLKTEL
With B1, the binding result in experiment [2] is “binds”.

B2: human AGR2 (residues 21-175), AUC, O95994 21-175 (protein)
chain: RDTTVKPGAKKDTKDSRPKLPQTLSRGWGDQLIWTQTYEEALYKSKTSNKPLMIIHHLDECPHSQALKKVFAENKEIQKLAEQFVLLNLVYETTDKHLSPDGQYVPRIMFVDPSLTVRADITGRYSNRLYAYEPADTALLLDNMKKALKLLKTEL
Regarding B2, in experiment [3], the binding result was “binds”.
